From patent US20200108115A1, “MEDICINAL COMPOSITION DERIVED FROM MULTIPLE PLANT SOURCES FOR GASTROINTESTINAL DISORDER” (priority 2017, published 2020)
Converted amounts (≈) assume the structure as drawn.

Test system: Lactobacillus acidophilus (BB1)
Experiment: MIC by resazurin micro-titre method
Assay type: cell-based
Conditions: beneficial, 37° C., 18-24 h

SMILES: O=C(O)c1cn(C2CC2)c2cc(N3CCNCC3)c(F)cc2c1=O [Ciprofloxacin, ciprofloxacin]
- MIC: 250 µg/mL (≈ 754 µM)
